Laboratory results reported in the supplement of paper PMC10849652.
Some of the results follow.

By UniProt entry, the sequences of proteins in these tests, tags left out. Where a name states a change or a piece, a line headed by the entry shows the natural chain unless it says otherwise.
UniProt O94992, whole entry, looked up: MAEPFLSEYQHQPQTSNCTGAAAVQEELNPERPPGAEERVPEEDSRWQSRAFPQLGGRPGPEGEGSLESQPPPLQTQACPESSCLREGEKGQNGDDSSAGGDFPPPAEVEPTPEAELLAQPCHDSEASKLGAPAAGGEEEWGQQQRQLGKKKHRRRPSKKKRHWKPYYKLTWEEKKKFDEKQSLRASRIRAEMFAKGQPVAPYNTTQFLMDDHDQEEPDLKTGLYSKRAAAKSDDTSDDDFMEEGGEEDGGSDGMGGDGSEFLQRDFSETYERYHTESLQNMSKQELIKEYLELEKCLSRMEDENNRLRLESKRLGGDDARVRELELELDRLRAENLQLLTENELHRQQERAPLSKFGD
UniProt Q9BXL5: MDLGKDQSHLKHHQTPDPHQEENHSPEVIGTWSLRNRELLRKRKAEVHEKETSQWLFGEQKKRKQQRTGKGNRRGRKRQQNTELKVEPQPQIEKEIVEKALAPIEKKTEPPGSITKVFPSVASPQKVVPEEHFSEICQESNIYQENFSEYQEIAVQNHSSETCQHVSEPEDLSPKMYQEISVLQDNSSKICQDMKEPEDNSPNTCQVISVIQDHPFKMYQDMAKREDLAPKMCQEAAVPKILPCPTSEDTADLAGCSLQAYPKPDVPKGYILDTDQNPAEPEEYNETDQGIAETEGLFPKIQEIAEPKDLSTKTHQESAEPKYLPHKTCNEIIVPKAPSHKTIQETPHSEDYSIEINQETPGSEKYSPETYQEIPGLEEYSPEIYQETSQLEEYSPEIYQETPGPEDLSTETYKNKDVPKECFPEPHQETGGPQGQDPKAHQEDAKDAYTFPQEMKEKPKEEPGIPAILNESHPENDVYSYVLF
UniProt O00178: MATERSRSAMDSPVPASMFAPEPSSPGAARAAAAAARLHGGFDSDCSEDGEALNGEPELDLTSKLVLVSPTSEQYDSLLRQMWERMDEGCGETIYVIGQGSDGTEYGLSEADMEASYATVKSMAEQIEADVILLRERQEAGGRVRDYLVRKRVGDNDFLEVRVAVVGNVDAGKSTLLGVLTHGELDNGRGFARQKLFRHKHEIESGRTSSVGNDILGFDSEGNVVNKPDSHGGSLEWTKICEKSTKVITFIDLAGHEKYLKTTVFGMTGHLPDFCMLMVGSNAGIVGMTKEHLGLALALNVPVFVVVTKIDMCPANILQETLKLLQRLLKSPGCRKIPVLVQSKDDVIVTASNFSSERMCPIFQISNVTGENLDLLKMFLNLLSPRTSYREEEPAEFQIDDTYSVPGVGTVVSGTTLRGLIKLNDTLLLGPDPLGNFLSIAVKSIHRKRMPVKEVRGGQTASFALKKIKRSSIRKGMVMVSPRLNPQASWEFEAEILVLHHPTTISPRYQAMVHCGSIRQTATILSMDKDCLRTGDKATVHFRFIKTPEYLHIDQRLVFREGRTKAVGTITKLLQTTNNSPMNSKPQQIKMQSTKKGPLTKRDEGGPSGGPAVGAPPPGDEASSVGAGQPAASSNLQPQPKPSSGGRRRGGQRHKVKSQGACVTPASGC
UniProt Q9Y3E1: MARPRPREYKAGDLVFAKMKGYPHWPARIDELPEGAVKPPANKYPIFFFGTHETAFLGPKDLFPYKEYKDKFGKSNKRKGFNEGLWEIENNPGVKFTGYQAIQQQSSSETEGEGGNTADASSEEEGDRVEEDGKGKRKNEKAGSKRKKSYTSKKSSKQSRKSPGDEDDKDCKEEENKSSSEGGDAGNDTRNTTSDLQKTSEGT
UniProt Q13888: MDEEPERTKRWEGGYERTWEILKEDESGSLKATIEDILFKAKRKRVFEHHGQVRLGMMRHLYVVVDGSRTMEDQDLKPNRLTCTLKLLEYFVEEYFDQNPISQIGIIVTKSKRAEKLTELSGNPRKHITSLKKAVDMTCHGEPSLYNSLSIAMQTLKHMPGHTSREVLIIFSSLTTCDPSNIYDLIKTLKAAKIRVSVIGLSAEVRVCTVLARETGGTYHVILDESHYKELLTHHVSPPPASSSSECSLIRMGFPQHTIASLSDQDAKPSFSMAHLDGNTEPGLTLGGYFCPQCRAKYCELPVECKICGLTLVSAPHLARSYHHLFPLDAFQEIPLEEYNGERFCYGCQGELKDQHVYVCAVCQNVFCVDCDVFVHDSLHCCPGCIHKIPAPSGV
UniProt Q9Y5Z4: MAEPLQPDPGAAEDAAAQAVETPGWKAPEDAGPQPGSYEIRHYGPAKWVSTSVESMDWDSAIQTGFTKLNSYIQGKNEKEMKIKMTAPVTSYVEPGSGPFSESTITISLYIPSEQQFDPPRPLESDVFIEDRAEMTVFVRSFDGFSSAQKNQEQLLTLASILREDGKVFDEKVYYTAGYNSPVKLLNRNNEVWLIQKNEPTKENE
UniProt P69892: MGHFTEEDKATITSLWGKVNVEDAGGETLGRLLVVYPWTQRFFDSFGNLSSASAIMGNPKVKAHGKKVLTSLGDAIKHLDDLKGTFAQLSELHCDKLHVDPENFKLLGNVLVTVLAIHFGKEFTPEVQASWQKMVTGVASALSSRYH
UniProt P48637: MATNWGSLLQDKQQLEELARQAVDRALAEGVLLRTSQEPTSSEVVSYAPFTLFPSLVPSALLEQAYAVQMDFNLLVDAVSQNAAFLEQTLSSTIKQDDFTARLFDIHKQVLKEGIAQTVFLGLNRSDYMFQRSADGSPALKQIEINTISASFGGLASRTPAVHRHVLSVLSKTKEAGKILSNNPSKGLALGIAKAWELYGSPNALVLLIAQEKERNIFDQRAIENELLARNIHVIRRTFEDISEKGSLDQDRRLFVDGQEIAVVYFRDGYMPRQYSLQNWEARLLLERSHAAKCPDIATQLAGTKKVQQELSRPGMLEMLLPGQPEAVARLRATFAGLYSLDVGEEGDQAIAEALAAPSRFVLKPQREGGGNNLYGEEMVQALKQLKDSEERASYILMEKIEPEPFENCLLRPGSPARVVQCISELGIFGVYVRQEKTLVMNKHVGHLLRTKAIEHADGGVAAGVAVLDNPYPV
UniProt P06396, whole entry, looked up: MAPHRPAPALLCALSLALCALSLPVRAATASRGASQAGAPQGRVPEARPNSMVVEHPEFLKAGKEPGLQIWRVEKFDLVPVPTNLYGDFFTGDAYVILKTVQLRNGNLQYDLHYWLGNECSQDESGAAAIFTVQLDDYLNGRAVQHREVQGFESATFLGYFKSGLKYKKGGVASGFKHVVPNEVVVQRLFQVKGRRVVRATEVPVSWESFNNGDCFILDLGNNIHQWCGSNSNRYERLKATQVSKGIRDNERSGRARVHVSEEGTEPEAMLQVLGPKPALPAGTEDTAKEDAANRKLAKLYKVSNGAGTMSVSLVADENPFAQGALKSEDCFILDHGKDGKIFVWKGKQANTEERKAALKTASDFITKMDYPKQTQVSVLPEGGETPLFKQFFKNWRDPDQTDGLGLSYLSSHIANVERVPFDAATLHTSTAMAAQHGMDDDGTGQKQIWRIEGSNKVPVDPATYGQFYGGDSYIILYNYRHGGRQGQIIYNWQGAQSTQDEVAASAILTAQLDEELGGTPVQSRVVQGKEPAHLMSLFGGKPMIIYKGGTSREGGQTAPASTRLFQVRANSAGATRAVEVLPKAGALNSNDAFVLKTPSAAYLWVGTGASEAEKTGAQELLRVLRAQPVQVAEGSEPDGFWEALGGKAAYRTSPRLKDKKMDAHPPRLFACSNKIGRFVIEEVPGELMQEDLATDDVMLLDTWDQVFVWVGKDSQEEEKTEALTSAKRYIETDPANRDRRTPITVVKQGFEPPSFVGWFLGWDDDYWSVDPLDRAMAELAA
UniProt P49590: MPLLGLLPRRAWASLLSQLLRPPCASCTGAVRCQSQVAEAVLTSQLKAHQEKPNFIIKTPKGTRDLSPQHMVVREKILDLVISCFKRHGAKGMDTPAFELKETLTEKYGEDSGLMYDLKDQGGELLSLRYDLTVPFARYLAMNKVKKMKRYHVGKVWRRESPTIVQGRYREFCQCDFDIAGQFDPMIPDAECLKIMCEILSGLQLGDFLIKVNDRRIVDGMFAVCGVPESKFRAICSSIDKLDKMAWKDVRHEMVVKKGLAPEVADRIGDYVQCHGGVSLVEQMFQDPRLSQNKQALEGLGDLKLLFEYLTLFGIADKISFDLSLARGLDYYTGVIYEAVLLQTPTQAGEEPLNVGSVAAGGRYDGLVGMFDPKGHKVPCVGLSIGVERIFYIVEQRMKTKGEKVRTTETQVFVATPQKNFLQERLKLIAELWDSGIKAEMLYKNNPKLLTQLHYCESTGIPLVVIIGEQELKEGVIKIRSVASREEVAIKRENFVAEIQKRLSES
UniProt P14317: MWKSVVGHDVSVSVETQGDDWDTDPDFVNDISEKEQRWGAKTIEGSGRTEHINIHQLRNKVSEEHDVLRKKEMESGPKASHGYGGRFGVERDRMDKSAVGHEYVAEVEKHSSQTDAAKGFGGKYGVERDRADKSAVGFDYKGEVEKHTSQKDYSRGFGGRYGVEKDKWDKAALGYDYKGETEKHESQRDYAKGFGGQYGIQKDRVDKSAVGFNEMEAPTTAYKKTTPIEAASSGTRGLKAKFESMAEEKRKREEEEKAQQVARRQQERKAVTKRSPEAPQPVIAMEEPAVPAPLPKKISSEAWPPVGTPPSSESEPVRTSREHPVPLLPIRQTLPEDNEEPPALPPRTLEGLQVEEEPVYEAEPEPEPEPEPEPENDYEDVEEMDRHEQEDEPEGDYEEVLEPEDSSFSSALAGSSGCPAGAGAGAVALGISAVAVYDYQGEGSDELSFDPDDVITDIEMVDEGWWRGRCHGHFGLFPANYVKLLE
UniProt O15379: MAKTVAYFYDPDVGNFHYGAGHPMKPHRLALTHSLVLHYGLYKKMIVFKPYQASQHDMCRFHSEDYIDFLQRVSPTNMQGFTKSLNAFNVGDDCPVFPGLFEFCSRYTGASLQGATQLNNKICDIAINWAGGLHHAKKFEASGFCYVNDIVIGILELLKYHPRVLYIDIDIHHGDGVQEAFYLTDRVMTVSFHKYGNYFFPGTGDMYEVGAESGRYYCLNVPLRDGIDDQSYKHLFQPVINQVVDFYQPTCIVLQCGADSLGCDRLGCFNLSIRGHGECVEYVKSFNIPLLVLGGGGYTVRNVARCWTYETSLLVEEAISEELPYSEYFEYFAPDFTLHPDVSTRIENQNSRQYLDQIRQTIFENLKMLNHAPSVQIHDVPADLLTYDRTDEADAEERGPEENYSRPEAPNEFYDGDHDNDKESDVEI
UniProt P13984, whole entry, looked up: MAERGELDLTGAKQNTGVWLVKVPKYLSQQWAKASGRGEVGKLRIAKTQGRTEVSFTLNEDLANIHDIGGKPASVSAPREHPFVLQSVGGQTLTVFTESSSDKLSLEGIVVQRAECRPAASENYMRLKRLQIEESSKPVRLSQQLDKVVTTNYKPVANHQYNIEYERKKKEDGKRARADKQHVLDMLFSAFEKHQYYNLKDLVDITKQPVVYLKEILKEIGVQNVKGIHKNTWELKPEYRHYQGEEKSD

Assays:
Assay in all cases: log2 fold change, soluble protein after heating vs DMSO (PISA); higher = thermal stabilisation; K562 cells, 10 uM, 30 min; active = over 0.2 and 3.5 SD of the protein, either way, in both replicates (recomputed)
[1] = compound: CS(=O)(=O)c1ccc(-c2cnc(N)c(C(=O)Nc3ccccc3)n2)cc1
In short: (§1)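 K562 cells at 2×10^6 cells/mL were exposed to 10 μM compound for 30 min, then aliquots were heated for 3 min across 48°C-58°C, pooled, and extracted in PBS containing 0.5% NP-40 at 4°C. The supernatant after 21,000xg for 90 min was taken as soluble protein and measured by TMTpro 16plex LC-MS/MS with channel sums equalised. Thermal stability is reported relative to control samples, with values from duplicates. Fold changes are given on a log2 scale.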

[2] = compound: C[C@@H](Oc1cc(-c2cnn(C3CCNCC3)c2)cnc1N)c1c(Cl)ccc(F)c1Cl [crizotinib]
In short: as §1

[3] = compound: C[C@@H]1COCCN1C2=NC(=NC(=C2)C3(CC3)S(=O)(=O)C)C4=C5C=CNC5=CC=C4
In short: as §1

[4] = compound: C[C@H](C1=CC=C(C=C1)C(=O)NC2=C3C=CNC3=NC=C2)N
In short: as §1

[5] = compound: C[C@H](Nc1ncnc2nc[nH]c12)c1cc2cccc(Cl)c2c(=O)n1-c1ccccc1 [duvelisib]
In short: as §1

[6] = compound: Cc1cc(Nc2cc(CN3CCOCC3)c3nc(C)c(Cc4ccc(Cl)cc4F)n3n2)n[nH]1 [gandotinib]
In short: as §1

[7] = compound: Cc1cc(Nc2cc(N3CCN(C)CC3)nc(Sc3ccc(NC(=O)C4CC4)cc3)n2)n[nH]1 [tozasertib]
In short: as §1

[8] = compound: Cc1cc(SCc2sc(-c3ccc(C(F)(F)F)cc3)nc2C)ccc1OCC(=O)O
In short: as §1

[9] = compound: Cc1ccc(-n2nc(C(C)(C)C)cc2NC(=O)Nc2ccc(OCCN3CCOCC3)c3ccccc23)cc1 [doramapimod]
In short: as §1

[10] = compound: Cc1ccc(C(=O)N(CCCN)[C@@H](c2nc3cc(Cl)ccc3c(=O)n2Cc2ccccc2)C(C)C)cc1 [ispinesib]
In short: as §1

[11] = compound: Cc1ccc(NC(=O)c2ccc(CN3CC[C@H](N(C)C)C3)c(C(F)(F)F)c2)cc1Nc1nccc(-c2cncnc2)n1 [bafetinib]
In short: as §1

[12] = compound: Cc1cccc(CC(=O)N2CCc3c2ccc(-c2cn(C)c4ncnc(N)c24)c3F)n1
In short: as §1

[13] = compound: Cc1cn(-c2cc(NC(=O)c3ccc(C)c(Nc4nccc(-c5cccnc5)n4)c3)cc(C(F)(F)F)c2)cn1 [nilotinib]
In short: as §1

[14] = compound: Cc1nc(Nc2n[nH]c3c2CN(C(=O)N[C@H](CN(C)C)c2ccccc2)C3(C)C)c2sccc2n1
In short: as §1

[15] = compound: Cc1nc(Nc2ncc(C(=O)Nc3c(C)cccc3Cl)s2)cc(N2CCN(CCO)CC2)n1 [dasatinib]
In short: as §1

[16] = compound: Cc1ncc(-c2ccnc(Nc3ccc(S(C)(=O)=O)cc3)n2)n1C(C)C
In short: as §1

[17] = compound: Cn1cc(-c2ccc3c(c2)CCN3C(=O)Cc2cccc(C(F)(F)F)c2)c2c(N)ncnc21
In short: as §1

[18] = compound: Cn1cc(-c2ccc3nnc(C(F)(F)c4ccc5ncccc5c4)n3n2)cn1
In short: as §1

[19] = compound: Cn1cncc1[C@@](N)(c1ccc(Cl)cc1)c1ccc2c(c1)c(-c1cccc(Cl)c1)cc(=O)n2C [tipifarnib]
In short: as §1

[20] = compound: FC(F)(F)c1ccc(/C=C/c2nc(COc3ccc(CCCCn4ccnn4)cc3)co2)cc1 [mubritinib]
In short: as §1

Measured: log2 fold change

HEXIM1 (UniProt O94992)
inactive: [1] -0.003 | [2] 0.024 | [3] -0.018 | [4] 0.061 | [5] 0.063 | [6] 0.167 | [7] 0.044 | [8] -0.001 | [9] 0.014 | [10] -0.02 | [11] 0.006 | [12] -0.087 | [13] 0.043 | [14] 0.046 | [15] 0.015 | [16] 0.032 | [17] 0.043 | [18] -0.035 | [19] 0.006 | [20] 0.029

HEMGN (UniProt Q9BXL5)
inactive: [1] -0.022 | [2] 0.053 | [3] -0.021 | [4] 0.028 | [5] 0.027 | [6] 0.063 | [7] -0.019 | [8] 0.016 | [9] -0.003 | [10] -0.011 | [11] 0.008 | [12] -0.063 | [13] -0.003 | [14] 0.05 | [15] 0.045 | [16] 0.004 | [17] -0.014 | [18] 0.02 | [19] 0.035 | [20] -0.009

GSTZ1 (UniProt G3V4T6)
inactive: [1] 0.046 | [2] -0.041 | [3] 0.057 | [4] -0.047 | [5] -0.033 | [6] -0.017 | [7] -0.016 | [8] 0.062 | [9] 0.01 | [10] -0.023 | [11] 0 | [12] -0.042 | [13] -0.016 | [14] -0.002 | [15] -0.022 | [16] -0.038 | [17] 0.077 | [18] -0.031 | [19] 0.014 | [20] 0.032

GTPBP1 (UniProt O00178)
inactive: [1] -0.015 | [2] -0.001 | [3] 0.043 | [4] 0.022 | [5] -0.013 | [6] 0 | [7] -0.007 | [8] 0.014 | [9] 0.024 | [10] -0.017 | [11] -0.043 | [12] 0.037 | [13] -0.158 | [14] -0.001 | [15] -0.04 | [16] 0.001 | [17] -0.013 | [18] 0.027 | [19] 0.012 | [20] -0.123

HDGFL3 (UniProt Q9Y3E1)
inactive: [1] -0.031 | [2] 0.088 | [3] -0.006 | [4] 0.001 | [5] 0.019 | [6] 0.046 | [7] -0.031 | [8] -0.046 | [9] -0.041 | [10] -0.016 | [11] -0.037 | [12] -0.162 | [13] -0.023 | [14] -0.008 | [15] 0.035 | [16] -0.007 | [17] -0.069 | [18] 0.035 | [19] 0.055 | [20] 0.016

GTF2H2 (UniProt Q13888)
inactive: [1] 0.009 | [2] -0.055 | [3] 0.005 | [4] -0.009 | [5] -0.024 | [6] -0.078 | [7] 0.101 | [8] -0.013 | [9] -0.028 | [10] -0.021 | [11] -0.012 | [12] 0.043 | [13] 0.016 | [14] -0.066 | [15] 0.03 | [16] -0.001 | [17] 0.057 | [18] -0.039 | [19] 0.028 | [20] -0.026

HEBP2 (UniProt Q9Y5Z4)
inactive: [1] 0.025 | [2] 0.034 | [3] 0.018 | [4] -0.087 | [5] 0.02 | [6] 0.024 | [7] -0.008 | [8] -0.026 | [9] -0.042 | [10] 0.011 | [11] -0.022 | [12] -0.02 | [13] -0.032 | [14] -0.042 | [15] -0.011 | [16] 0.004 | [17] 0.026 | [18] 0.038 | [19] -0.026 | [20] 0.029

HBG2 (UniProt P69892)
inactive: [1] -0.023 | [2] 0.097 | [3] 0.128 | [4] -0.164 | [5] 0.025 | [6] 0.089 | [7] 0.043 | [8] -0.024 | [9] 0.003 | [10] 0.124 | [11] 0.008 | [12] 0.043 | [13] 0.021 | [14] 0.014 | [15] 0.003 | [16] -0.01 | [17] 0.121 | [18] 0.015 | [19] -0.137 | [20] 0.022

GSS (UniProt P48637)
inactive: [1] -0.005 | [2] 0.043 | [3] 0.038 | [4] -0.007 | [5] 0.023 | [6] 0.015 | [7] -0.019 | [8] -0.04 | [9] -0.035 | [10] 0.026 | [11] -0.038 | [12] -0.052 | [13] 0.001 | [14] 0.014 | [15] 0.03 | [16] -0.006 | [17] 0.022 | [18] 0.009 | [19] -0.037 | [20] 0.049

GSN (UniProt P06396)
inactive: [1] -0.03 | [2] 0.033 | [3] 0.049 | [4] -0.011 | [5] -0.024 | [6] -0.054 | [7] -0.011 | [8] -0.029 | [9] -0.053 | [10] -0.018 | [11] -0.111 | [12] 0.027 | [13] 0.035 | [14] -0.018 | [15] -0.024 | [16] 0.07 | [17] 0.199 | [18] 0.01 | [19] 0.082 | [20] -0.165

HARS2 (UniProt P49590)
inactive: [1] 0.006 | [2] 0.083 | [3] -0.01 | [4] 0.036 | [5] 0.007 | [6] -0.02 | [7] -0.014 | [8] -0.011 | [9] -0.064 | [10] -0.016 | [11] -0.029 | [12] -0.092 | [13] -0.002 | [14] 0.052 | [15] 0.034 | [16] 0.055 | [17] 0.038 | [18] 0.015 | [19] 0.054 | [20] 0.085

H4C1 (UniProt P62805)
inactive: [1] -0.173 | [2] -0.251 | [3] -0.287 | [4] 0.435 | [5] -0.177 | [6] 0.041 | [7] 0.189 | [8] 0.015 | [9] 0.227 | [10] -0.192 | [11] 0.194 | [12] -0.146 | [13] -0.09 | [14] -0.056 | [15] 0.105 | [16] -0.083 | [17] -0.391 | [18] -0.133 | [19] 0.037 | [20] -0.166

HCLS1 (UniProt P14317)
inactive: [1] 0.015 | [2] 0 | [3] 0.04 | [4] -0.032 | [5] 0.025 | [6] 0.002 | [7] -0.02 | [8] -0.049 | [9] -0.003 | [10] -0.028 | [11] -0.055 | [12] -0.044 | [13] 0.026 | [14] -0.007 | [15] 0.038 | [16] -0.017 | [17] -0.014 | [18] 0.01 | [19] -0.015 | [20] 0.034

HDAC3 isoform 2 (UniProt O15379)
inactive: [1] 0.022 | [2] 0.107 | [3] 0.085 | [4] 0.143 | [5] 0.049 | [6] -0.081 | [7] 0.016 | [8] -0.044 | [9] -0.098 | [10] 0.085 | [11] 0.033 | [12] 0.062 | [13] -0.007 | [14] -0.09 | [15] -0.179 | [16] -0.14 | [17] -0.088 | [18] -0.101 | [19] 0.125 | [20] 0.079

HCFC1 isoform 4 (UniProt P51610)
inactive: [1] 0.009 | [2] 0.005 | [3] 0.018 | [4] -0.012 | [5] 0.023 | [6] -0.01 | [7] 0.012 | [8] 0.019 | [9] -0.041 | [10] 0.096 | [11] 0.046 | [12] -0.004 | [13] -0.066 | [14] 0.092 | [15] -0.088 | [16] 0.034 | [17] 0.037 | [18] 0 | [19] -0.056 | [20] 0.027

Two entries drawn at random from those above, as already listed:
H4C1 (UniProt P62805)
inactive: [1] -0.173 | [2] -0.251 | [3] -0.287 | [4] 0.435 | [5] -0.177 | [6] 0.041 | [7] 0.189 | [8] 0.015 | [9] 0.227 | [10] -0.192 | [11] 0.194 | [12] -0.146 | [13] -0.09 | [14] -0.056 | [15] 0.105 | [16] -0.083 | [17] -0.391 | [18] -0.133 | [19] 0.037 | [20] -0.166

HCFC1 isoform 4 (UniProt P51610)
inactive: [1] 0.009 | [2] 0.005 | [3] 0.018 | [4] -0.012 | [5] 0.023 | [6] -0.01 | [7] 0.012 | [8] 0.019 | [9] -0.041 | [10] 0.096 | [11] 0.046 | [12] -0.004 | [13] -0.066 | [14] 0.092 | [15] -0.088 | [16] 0.034 | [17] 0.037 | [18] 0 | [19] -0.056 | [20] 0.027

(cont.)

GTF2F2 (UniProt P13984)
inactive: [1] 0 | [2] -0.019 | [3] 0.047 | [4] -0.068 | [5] 0.047 | [6] -0.051 | [7] -0.034 | [8] 0.009 | [9] -0.01 | [10] 0.005 | [11] -0.004 | [12] 0.018 | [13] 0 | [14] 0.005 | [15] -0.049 | [16] -0.013 | [17] 0.029 | [18] -0.002 | [19] -0.004 | [20] 0.027
